Results published in patent US7915429B2, “Compounds for the treatment of metabolic disorders” (Wellstat Therapeutics Corporation, priority 2006, dated 2011).
At least one structure is not confirmed: it was looked up by name or label, or the drawing left a doubt.

Tested on: db/db mice
Test: Antidiabetic effects in db/db mice, second experiment (Example H)
Assay type: in vivo
Details: male db/db mice, after 8 weeks of daily oral treatment, compared to vehicle-treated controls; rosiglitazone 20 mg/kg

In the case of `CN(CCOc1ccc(CC2SC(=O)NC2=O)cc1)c1ccccn1` (centres unmarked) [rosiglitazone], the blood glucose is reported as “significantly lower” and the triglycerides is reported as “significantly lower”.
